In patent publication US20180230189A1 one finds binding data, which are given here for one substance.

Amino acid sequences for entries named in this document (tags omitted). A change or cut given only in a name is not applied to a line headed by its entry. Chains listed by the source or under a name are the forms on record and can include a tag or linker.
UniProt O14786: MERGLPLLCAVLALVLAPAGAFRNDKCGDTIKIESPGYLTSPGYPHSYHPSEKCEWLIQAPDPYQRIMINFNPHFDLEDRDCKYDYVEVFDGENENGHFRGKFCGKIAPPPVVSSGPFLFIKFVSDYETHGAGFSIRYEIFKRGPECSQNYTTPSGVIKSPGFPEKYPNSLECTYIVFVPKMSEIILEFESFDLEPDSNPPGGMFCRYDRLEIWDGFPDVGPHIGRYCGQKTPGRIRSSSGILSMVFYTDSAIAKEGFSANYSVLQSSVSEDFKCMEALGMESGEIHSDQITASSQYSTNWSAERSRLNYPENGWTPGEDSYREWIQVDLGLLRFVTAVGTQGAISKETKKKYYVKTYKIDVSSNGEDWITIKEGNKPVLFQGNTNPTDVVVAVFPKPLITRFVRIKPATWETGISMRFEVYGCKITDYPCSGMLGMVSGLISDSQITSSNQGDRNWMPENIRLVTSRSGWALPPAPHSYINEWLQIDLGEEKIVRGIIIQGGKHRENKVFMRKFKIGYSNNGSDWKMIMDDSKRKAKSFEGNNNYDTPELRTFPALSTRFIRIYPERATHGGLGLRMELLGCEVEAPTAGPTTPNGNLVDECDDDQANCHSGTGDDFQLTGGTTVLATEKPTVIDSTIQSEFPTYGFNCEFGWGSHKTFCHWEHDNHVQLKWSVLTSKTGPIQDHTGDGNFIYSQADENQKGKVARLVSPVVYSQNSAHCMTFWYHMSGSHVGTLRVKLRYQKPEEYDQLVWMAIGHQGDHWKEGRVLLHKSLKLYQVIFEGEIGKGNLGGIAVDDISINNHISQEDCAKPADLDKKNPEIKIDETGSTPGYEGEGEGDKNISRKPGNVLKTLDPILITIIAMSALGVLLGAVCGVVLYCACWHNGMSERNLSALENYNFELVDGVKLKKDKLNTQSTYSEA
VEGF165 (P15692, form named): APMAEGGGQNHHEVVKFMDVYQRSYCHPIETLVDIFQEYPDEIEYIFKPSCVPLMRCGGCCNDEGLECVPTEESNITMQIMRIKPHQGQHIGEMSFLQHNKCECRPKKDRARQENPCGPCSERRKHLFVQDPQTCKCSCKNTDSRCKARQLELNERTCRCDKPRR
UniProt P41159: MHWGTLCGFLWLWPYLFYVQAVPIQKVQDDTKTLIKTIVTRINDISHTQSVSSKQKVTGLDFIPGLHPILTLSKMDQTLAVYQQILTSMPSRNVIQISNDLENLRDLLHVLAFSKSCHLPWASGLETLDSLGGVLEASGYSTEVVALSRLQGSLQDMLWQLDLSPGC

No constants are given. Whether binding was seen depends on the method and setting. Some binding calls cover weakened binding; strength is not graded here.

Test [1] concerns the target Neuropilin-1 (recombinant protein, BLI of FIG. 1) (human) (UniProt O14786). The test is described as follows: Bio-layer interferometry (BLI), recombinant proteins. In general terms: BLI is a label-free optical method that tracks binding on a fibre tip over time.
For the next test, the target named is VEGF165 (UniProt P15692). The test is described as above.

For “Leptin (recombinant protein) (from UniProt P41159 22-167) (ligand)”, the binding entry (in test [1]; with VEGF165) was “binds” each time.
